According to paper PMC13144351:
These are yes or no findings as the source states them, for the method shown. In cells and extracts the contact can be indirect. A result given as binding can be weak or reduced; the word gives no strength. Values belong to the molecule of their own block, whether it stands above or below them.

The chains behind the UniProt entries cited, without tags or fusion partners.
UniProt O94822: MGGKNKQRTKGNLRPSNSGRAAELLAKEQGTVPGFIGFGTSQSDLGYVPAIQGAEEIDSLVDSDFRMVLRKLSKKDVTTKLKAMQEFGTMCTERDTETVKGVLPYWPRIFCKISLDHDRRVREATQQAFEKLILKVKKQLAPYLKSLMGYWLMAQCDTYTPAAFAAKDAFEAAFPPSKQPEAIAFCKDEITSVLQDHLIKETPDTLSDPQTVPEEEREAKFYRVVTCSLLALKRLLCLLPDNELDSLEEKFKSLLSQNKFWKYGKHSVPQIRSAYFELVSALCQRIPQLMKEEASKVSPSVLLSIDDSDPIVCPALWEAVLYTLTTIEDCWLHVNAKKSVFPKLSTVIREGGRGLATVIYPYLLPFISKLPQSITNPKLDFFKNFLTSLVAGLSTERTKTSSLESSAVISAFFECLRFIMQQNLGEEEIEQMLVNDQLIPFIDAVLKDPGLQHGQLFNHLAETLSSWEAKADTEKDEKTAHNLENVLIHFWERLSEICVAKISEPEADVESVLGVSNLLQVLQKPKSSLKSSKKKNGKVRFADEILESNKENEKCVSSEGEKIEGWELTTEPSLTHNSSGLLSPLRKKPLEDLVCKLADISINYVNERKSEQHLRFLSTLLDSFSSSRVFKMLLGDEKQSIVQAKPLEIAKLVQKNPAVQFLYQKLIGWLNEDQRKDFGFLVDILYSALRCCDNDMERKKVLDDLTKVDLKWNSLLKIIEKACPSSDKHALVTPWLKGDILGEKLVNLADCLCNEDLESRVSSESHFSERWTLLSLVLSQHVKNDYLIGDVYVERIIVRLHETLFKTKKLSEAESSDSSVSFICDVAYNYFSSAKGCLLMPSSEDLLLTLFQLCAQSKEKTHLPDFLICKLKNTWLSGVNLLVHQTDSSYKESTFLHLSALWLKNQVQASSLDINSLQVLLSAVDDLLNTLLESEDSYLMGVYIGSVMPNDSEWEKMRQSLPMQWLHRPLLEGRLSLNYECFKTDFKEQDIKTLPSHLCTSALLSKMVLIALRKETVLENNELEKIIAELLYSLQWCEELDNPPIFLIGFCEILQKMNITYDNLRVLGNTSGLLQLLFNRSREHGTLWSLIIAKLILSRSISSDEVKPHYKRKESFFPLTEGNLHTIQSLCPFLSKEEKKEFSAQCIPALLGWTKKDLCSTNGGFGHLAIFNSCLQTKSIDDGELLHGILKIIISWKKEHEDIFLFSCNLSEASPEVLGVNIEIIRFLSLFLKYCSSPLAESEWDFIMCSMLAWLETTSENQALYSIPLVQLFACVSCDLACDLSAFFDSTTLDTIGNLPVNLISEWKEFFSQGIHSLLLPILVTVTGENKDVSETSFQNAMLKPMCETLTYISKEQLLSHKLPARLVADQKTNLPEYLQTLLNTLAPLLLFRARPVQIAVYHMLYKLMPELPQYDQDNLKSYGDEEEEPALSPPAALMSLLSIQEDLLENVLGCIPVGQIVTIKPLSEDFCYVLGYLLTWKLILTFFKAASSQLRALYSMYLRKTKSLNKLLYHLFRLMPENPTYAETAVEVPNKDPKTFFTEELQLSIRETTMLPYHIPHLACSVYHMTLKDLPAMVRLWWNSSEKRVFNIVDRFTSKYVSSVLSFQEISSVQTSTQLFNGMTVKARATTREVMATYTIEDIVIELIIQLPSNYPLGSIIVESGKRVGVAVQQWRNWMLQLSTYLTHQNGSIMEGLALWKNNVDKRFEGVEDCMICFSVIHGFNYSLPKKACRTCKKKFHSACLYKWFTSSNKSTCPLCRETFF

Target: 3xFLAG-UFM1 (ubiquitin-fold modifier 1, endogenously tagged) (human) (UniProt P61960)
Test: co-IP; anti-FLAG M2 on protein G Dynabeads; cleared digitonin lysates of HCT116 or RKO iCas9 3xFLAG-UFM1 cells or parental cells, untreated or 200 nM anisomycin 1 h; 4 °C, 2 h; immunoblot

binding: binds
Molecule: LTN1 (from UniProt O94822 1-1766)

binding: binds
B1: NEMF (protein, UniProt O60524 1-1076)
chain: MKSRFSTIDLRAVLAELNASLLGMRVNNVYDVDNKTYLIRLQKPDFKATLLLESGIRIHTTEFEWPKNMMPSSFAMKCRKHLKSRRLVSAKQLGVDRIVDFQFGSDEAAYHLIIELYDRGNIVLTDYEYVILNILRFRTDEADDVKFAVRERYPLDHARAAEPLLTLERLTEIVASAPKGELLKRVLNPLLPYGPALIEHCLLENGFSGNVKVDEKLETKDIEKVLVSLQKAEDYMKTTSNFSGKGYIIQKREIKPSLEADKPVEDILTYEEFHPFLFSQHSQCPYIEFESFDKAVDEFYSKIEGQKIDLKALQQEKQALKKLDNVRKDHENRLEALQQAQEIDKLKGELIEMNLQIVDRAIQVVRSALANQIDWTEIGLIVKEAQAQGDPVASAIKELKLQTNHVTMLLRNPYLLSEEEDDDVDGDVNVEKNETEPPKGKKKKQKNKQLQKPQKNKPLLVDVDLSLSAYANAKKYYDHKRYAAKKTQKTVEAAEKAFKSAEKKTKQTLKEVQTVTSIQKARKVYWFEKFLWFISSENYLIIGGRDQQQNEIIVKRYLTPGDIYVHADLHGATSCVIKNPTGEPIPPRTLTEAGTMALCYSAAWDARVITSAWWVYHHQVSKTAPTGEYLTTGSFMIRGKKNFLPPSYLMMGFSFLFKVDESCVWRHQGERKVRVQDEDMETLASCTSELISEEMEQLDGGDTSSDEDKEEHETPVEVELMTQVDQEDITLQSGRDELNEELIQEESSEDEGEYEEVRKDQDSVGEMKDEGEETLNYPDTTIDLSHLQPQRSIQKLASKEESSNSSDSKSQSRRHLSAKERREMKKKKLPSDSGDLEALEGKDKEKESTVHIETHQNTSKNVAAVQPMKRGQKSKMKKMKEKYKDQDEEDRELIMKLLGSAGSNKEEKGKKGKKGKTKDEPVKKQPQKPRGGQRVSDNIKKETPFLEVITHELQDFAVDDPHDDKEEQDLDQQGNEENLFDSLTGQPHPEDVLLFAIPICAPYTTMTNYKYKVKLTPGVQKKGKAAKTALNSFMHSKEATAREKDLFRSVKDTDLSRNIPGKVKVSAPNLLNVKRK
